The values that follow come from paper PMC7246612, “The In Vitro Non-Tetramerizing ZapA^I83E Mutant Is Unable to Recruit ZapB to the Division Plane In Vivo in Escherichia coli” (International Journal of Molecular Sciences, 2020).

Protein sequences, listed by entry. Tags and fused reporters are not part of them.
UniProt P0A9A6: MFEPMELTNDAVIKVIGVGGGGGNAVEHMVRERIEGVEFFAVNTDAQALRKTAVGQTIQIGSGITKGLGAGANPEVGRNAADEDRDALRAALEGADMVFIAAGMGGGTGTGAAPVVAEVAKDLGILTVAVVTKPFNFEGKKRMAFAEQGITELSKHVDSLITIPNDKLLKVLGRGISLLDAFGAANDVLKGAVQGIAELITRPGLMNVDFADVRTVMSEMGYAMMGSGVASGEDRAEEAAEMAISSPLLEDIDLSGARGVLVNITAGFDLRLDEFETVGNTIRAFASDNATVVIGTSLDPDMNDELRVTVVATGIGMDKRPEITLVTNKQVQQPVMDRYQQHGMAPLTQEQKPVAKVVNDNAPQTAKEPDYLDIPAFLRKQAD

Assay [1] deals with T1, mKO–PBP1a (inner membrane protein PBP1a fused to mKO) (UniProt P02918).
T1 sequence: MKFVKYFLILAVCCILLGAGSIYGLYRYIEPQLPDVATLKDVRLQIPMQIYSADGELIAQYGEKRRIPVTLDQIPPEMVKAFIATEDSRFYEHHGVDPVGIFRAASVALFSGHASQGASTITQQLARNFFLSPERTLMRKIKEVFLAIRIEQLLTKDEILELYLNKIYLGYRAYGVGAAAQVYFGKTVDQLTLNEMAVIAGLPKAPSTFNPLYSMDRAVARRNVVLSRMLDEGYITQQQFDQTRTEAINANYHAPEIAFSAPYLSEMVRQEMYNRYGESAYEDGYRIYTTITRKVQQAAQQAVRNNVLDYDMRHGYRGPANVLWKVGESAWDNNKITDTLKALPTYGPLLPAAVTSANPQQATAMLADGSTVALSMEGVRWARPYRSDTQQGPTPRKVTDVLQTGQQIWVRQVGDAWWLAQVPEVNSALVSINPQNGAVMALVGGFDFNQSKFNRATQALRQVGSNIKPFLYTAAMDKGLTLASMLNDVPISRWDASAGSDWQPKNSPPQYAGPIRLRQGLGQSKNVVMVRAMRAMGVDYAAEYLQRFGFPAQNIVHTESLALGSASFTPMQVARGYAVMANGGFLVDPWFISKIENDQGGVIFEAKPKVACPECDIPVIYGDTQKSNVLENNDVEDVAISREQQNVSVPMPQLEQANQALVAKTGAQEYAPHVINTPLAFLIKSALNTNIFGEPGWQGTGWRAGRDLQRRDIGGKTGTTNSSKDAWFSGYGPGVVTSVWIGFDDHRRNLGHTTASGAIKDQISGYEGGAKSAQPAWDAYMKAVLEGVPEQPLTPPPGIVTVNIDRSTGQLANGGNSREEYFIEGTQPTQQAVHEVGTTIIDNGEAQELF
Description: FRET or BRET; in vivo FRET in E. coli TB28 ∆zapA cells; mKO fusion (donor) and mCh fusion (acceptor) expressed from plasmids; energy transfer efficiency (EfA) by spectral unmixing. For orientation: Bioluminescence resonance energy transfer reports proximity on the nanometre scale.

Assay [2] deals with mKO–FtsZ (filamenting temperature-sensitive Z fused to mKO) (Escherichia coli) (UniProt P0A9A6). Described as above.

Substitutions are numbered along the chain they refer to. Names may count otherwise. Results are given in words; binding and its absence hold for the method and conditions named. In cells and extracts the contact can be indirect. Some binding calls cover weakened binding; strength is not graded here. Sequences can lack the tags named with a protein.

B1: mCh–ZapA (wild-type Z-associated protein A fused to mCh) (natural protein, Escherichia coli, UniProt P0ADS2 1-109, looked up)
chain: MSAQPVDIQIFGRSLRVNCPPDQRDALNQAADDLNQRLQDLKERTRVTNTEQLVFIAALNISYELAQEKAKTRDYAASMEQRIRMLQQTIEQALLEQGRITEKTNQNFE
notes: Z-associated protein A (ZapA), Escherichia coli; also called mCh–ZapA^WT; ZapA^WT; source: E. coli TB28 ∆zapA or WT strain, expressed from plasmid pSAV077, in living cells; not shown: mCh, N-terminal, kept
As to B1, the binding entry in assay [1] is reported as “no binding”.

B2: mCh–ZapA^I83E (in vitro non-tetramerizing ZapA mutant fused to mCh) (natural protein, Escherichia coli, UniProt P0ADS2 1-109, looked up)
chain: B1 chain with I83E
notes: Z-associated protein A (ZapA), Escherichia coli, with I83E; made by exchanging zapA in pSAV077 with zapA^I83E from pRP071; also called pNM137; pTHV–mCh–ZapA^I83E; source: E. coli TB28 ∆zapA or WT strain, expressed from plasmid pNM137, in living cells; not shown: mCh, N-terminal, kept
In the case of B2, the results for the binding result in assay [2] and in assay [1] were “binds” and “no binding”, respectively.

B3: mCh–PBP1b (PBP1b fused to mCh) (natural protein, UniProt P02919 1-844, looked up)
chain: MAGNDREPIGRKGKPTRPVKQKVSRRRYEDDDDYDDYDDYEDEEPMPRKGKGKGKGRKPRGKRGWLWLLLKLAIVFAVLIAIYGVYLDQKIRSRIDGKVWQLPAAVYGRMVNLEPDMTISKNEMVKLLEATQYRQVSKMTRPGEFTVQANSIEMIRRPFDFPDSKEGQVRARLTFDGDHLATIVNMENNRQFGFFRLDPRLITMISSPNGEQRLFVPRSGFPDLLVDTLLATEDRHFYEHDGISLYSIGRAVLANLTAGRTVQGASTLTQQLVKNLFLSSERSYWRKANEAYMALIMDARYSKDRILELYMNEVYLGQSGDNEIRGFPLASLYYFGRPVEELSLDQQALLVGMVKGASIYNPWRNPKLALERRNLVLRLLQQQQIIDQELYDMLSARPLGVQPRGGVISPQPAFMQLVRQELQAKLGDKVKDLSGVKIFTTFDSVAQDAAEKAAVEGIPALKKQRKLSDLETAIVVVDRFSGEVRAMVGGSEPQFAGYNRAMQARRSIGSLAKPATYLTALSQPKIYRLNTWIADAPIALRQPNGQVWSPQNDDRRYSESGRVMLVDALTRSMNVPTVNLGMALGLPAVTETWIKLGVPKDQLHPVPAMLLGALNLTPIEVAQAFQTIASGGNRAPLSALRSVIAEDGKVLYQSFPQAERAVPAQAAYLTLWTMQQVVQRGTGRQLGAKYPNLHLAGKTGTTNNNVDTWFAGIDGSTVTITWVGRDNNQPTKLYGASGAMSIYQRYLANQTPTPLNLVPPEDIADMGVDYDGNFVCSGGMRILPVWTSDPQSLCQQSEMQQQPSGNPFDQSSQPQQQPQQQPAQQEQKDSDGVAGWIKDMFGSN
notes: PBP1b; Negative control in the FRET assay; also called pBB008; pTHV–mCh–PBP1b; source: E. coli TB28 ∆zapA, expressed from plasmid pBB008, in living cells; not shown: mCh, N-terminal, kept
With B3, the binding entry in assay [1] is “no binding”.
